Record: PubChem BioAssay AID602196 (INSERM, 2012)

Test: 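Modifiers of cisplatin sensitivity in A549 cells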
Cells: human A549 lung cancer cells
Knock-down reagent: siRNA pair against human genes
Duration: 48 h transfection before cisplatin; time from cisplatin to read-out not stated
Conditions: cisplatin at a dose killing half of control-siRNA cells; exact dose and duration not given
Measured: 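Cisplatin cell death as a shift from the 50% death seen with control siRNA; siRNAs toxic or growth-blocking alone scored 0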
Reading the numbers: two-siRNA summed score (-2 to +2): higher = both siRNAs protect from cisplatin killing; -2 means both sensitise; mean protection from cisplatin (shift in death) and protection from cisplatin (shift in death), siRNA C and protection from cisplatin (shift in death), siRNA D: higher = protection from cisplatin killing
Active means: 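siRNAs harmful alone (LDH or WST-1) get 0; others get +1 for less and -1 for more cisplatin killing; genes are active when the two siRNAs give the same sign, summing to ±2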
Meaning of the calls: active = both siRNAs shift cisplatin killing the same way; inactive = no consistent shift, or siRNA harmful alone
Here is a random part of about 23,000 reagents tested. 455 of all reagents (2%) count as active. 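Active includes both protection and sensitisation; some change values fall well beyond the stated -50 to +50 range.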 Not given: the amount of reagent.

| target | two-siRNA summed score (-2 to +2) | mean protection from cisplatin (shift in death) (%) | protection from cisplatin (shift in death), siRNA C (%) | protection from cisplatin (shift in death), siRNA D (%) | Outcome |
| --- | --- | --- | --- | --- | --- |
| SF3B1 | 0 | 15.4 | 27.7 | 3 | inactive |
| SACK1D | 0 | 2.8 | 1.5 | 4.2 | inactive |
| MOBP | 0 | 9.2 | -1.1 | 19.5 | inactive |
| GBX2 | 0 | 2.1 | -3.5 | 7.7 | inactive |
| RIPK4 | 2 | 19.8 | 23.8 | 15.9 | active |
| SMARCD3 | 0 | 7.4 | 2.8 | 12 | inactive |
| DPM1 | 0 | -1.9 | 2 | -5.9 | inactive |
| LOC441119 | 1 | 7.5 | 15.6 | -0.6 | inactive |
| LOC440035 | 2 | 13.7 | 11.8 | 15.6 | active |
| OR10S1 | 0 | 3 | 10.2 | -4.1 | inactive |
| LOC440104 | 1 | 13.9 | 12 | 15.8 | inactive |
| LOC442442 | 0 | 10.8 | 6.7 | 14.9 | inactive |
| LOC389858 | 0 | 5.7 | 3.2 | 8.2 | inactive |
| GLRX3 | -1 | -15.6 | 5.8 | -37 | inactive |
| SEC14L1 | 0 | 1.8 | -21 | 24.6 | inactive |
| PPP1R3D | -1 | -3.3 | -10.6 | 4 | inactive |
| ZNF765 | -1 | -1.4 | 10 | -12.8 | inactive |
| SLC39A5 | 2 | 31.7 | 37 | 26.3 | active |
| CXCL10 | -1 | -5.5 | -24.7 | 13.6 | inactive |
| HHAT | 0 | -6 | 2.9 | -14.9 | inactive |
| MS4A1 | 0 | 0 | 14.9 | -14.8 | inactive |
| LOC440385 | 0 | 19.7 | 14 | 25.4 | inactive |
| OR1B1 | 1 | 5.9 | -5.9 | 17.6 | inactive |
| GEM | 0 | 0 | -7.6 | 7.6 | inactive |

Next part (7 carried over from the part before).
| target | two-siRNA summed score (-2 to +2) | mean protection from cisplatin (shift in death) (%) | protection from cisplatin (shift in death), siRNA C (%) | protection from cisplatin (shift in death), siRNA D (%) | Outcome |
| --- | --- | --- | --- | --- | --- |
| SLC39A5 | 2 | 31.7 | 37 | 26.3 | active |
| CXCL10 | -1 | -5.5 | -24.7 | 13.6 | inactive |
| HHAT | 0 | -6 | 2.9 | -14.9 | inactive |
| MS4A1 | 0 | 0 | 14.9 | -14.8 | inactive |
| LOC440385 | 0 | 19.7 | 14 | 25.4 | inactive |
| OR1B1 | 1 | 5.9 | -5.9 | 17.6 | inactive |
| GEM | 0 | 0 | -7.6 | 7.6 | inactive |
| LOC144245 | 0 | 8.2 | 3.5 | 12.8 | inactive |
| BTAF1 | 1 | 14.6 | -0.4 | 29.6 | inactive |
| SLC25A32 | 0 | 5.7 | 14.5 | -3.1 | inactive |
| LOC441015 | 0 | -0.8 | 2.9 | -4.6 | inactive |
| LOC402152 | 0 | 2.1 | 5.1 | -1 | inactive |
| PSG4 | 0 | -3 | -2.8 | -3.1 | inactive |
| LOC401175 | 0 | 10.1 | 8.2 | 11.9 | inactive |
| CLEC4M | 1 | 11.7 | 10.9 | 12.5 | inactive |
| FLJ45300 | 0 | -3.1 | 0.1 | -6.3 | inactive |
| CHRNA4 | -2 | -13.7 | -10.9 | -16.5 | active |
| LCA5 | 0 | -9 | -9.7 | -8.2 | inactive |
| LINC00960 | 1 | 17.3 | 18.7 | 16 | inactive |
| TIA1 | 0 | 2.2 | 4.2 | 0.3 | inactive |
| NEUROD6 | 0 | -11.1 | -9.9 | -12.3 | inactive |
| FAM234A | 1 | 9.4 | 14.3 | 4.5 | inactive |
| NCOA3 | -1 | -19.5 | -6.8 | -32.1 | inactive |
| ARHGAP26 | 0 | 8.4 | 14.3 | 2.6 | inactive |
| TMTC3 | 0 | 2.5 | -2.3 | 7.4 | inactive |
| PGBD2 | 0 | 10 | 15 | 4.9 | inactive |
| CA13 | 0 | 5.2 | 9.2 | 1.2 | inactive |
| OR56B4 | 0 | 3.5 | 7.9 | -0.8 | inactive |
| MDP1 | 0 | -0.8 | -3.4 | 1.8 | inactive |
| CCDC12 | 0 | -8.5 | -7.5 | -9.6 | inactive |
| CDK5RAP3 | 0 | 5.9 | 8.5 | 3.3 | inactive |
| DCAF8L1 | 0 | 10.5 | 18.8 | 2.2 | inactive |
| TAAR9 | 0 | 21.2 | 18.8 | 23.5 | inactive |
| LOC387783 | 1 | 10.5 | -7.4 | 28.3 | inactive |
| OC90 | 0 | 2.5 | 3.4 | 1.6 | inactive |
| LOC442227 | 1 | 13.2 | 2.1 | 24.3 | inactive |
| LCA5L | 1 | 4.5 | -4.2 | 13.2 | inactive |
| XPNPEP3 | -1 | -17.6 | -5.4 | -29.9 | inactive |
| RCC2 | 0 | 17.6 | 19.6 | 15.7 | inactive |
| TNFRSF25 | 0 | -2.5 | 1.7 | -6.6 | inactive |
| LAMTOR1 | 0 | 0 | -6 | 6 | inactive |
| MEGF11 | 0 | 4.4 | 8.7 | 0 | inactive |
| LOC126167 | 0 | -2.7 | 1.5 | -6.8 | inactive |
| C19orf73 | 1 | 19.2 | -1.1 | 39.5 | inactive |
| DHX16 | 1 | 0.5 | -12.9 | 13.9 | inactive |
| LOC126075 | 0 | 1.5 | 13.1 | -10.1 | inactive |
| GH2 | 0 | -3 | -15.3 | 9.3 | inactive |
| NOSIP | 0 | -9.1 | -12.7 | -5.6 | inactive |
| SBSPON | 0 | 7.7 | 12.5 | 2.9 | inactive |
| LOC391123 | 1 | 14.2 | 4.3 | 24 | inactive |
| KANSL2 | 0 | -5.9 | -3 | -8.8 | inactive |
| TLR4 | -1 | -18.5 | -25 | -11.9 | inactive |
| COPS9 | 0 | 1.3 | 6.2 | -3.6 | inactive |
| CHRNA7 | 0 | -1.3 | -5.8 | 3.3 | inactive |
| LOC392169 | 0 | 6.6 | 4.7 | 8.5 | inactive |
| CYP2A13 | 0 | 7.3 | 6.2 | 8.4 | inactive |
